The source of these data is publication PMC10449492.

Where two headings read alike, the source gives them in different places. These are yes or no findings as the source states them, for the method shown. Binding seen in cells or lysates may run through a third protein. Here binding means that the protein was enriched with, or labelled near, the bait; the list need not be complete.

Holding throughout (assay): affinity purification with mass spectrometry; anti-HA agarose beads with the Triton X-100-soluble fraction of saponin-isolated trophozoites (PfUPF1-HA, PfUPF2-HA, WT control), overnight at 4°C; IP buffer 1% Triton X-100, 50 mM Tris-HCl, 150 mM NaCl, 2 mM EDTA; five washes; LC-MS/MS of eluates; two biological replicates; hit: at least two significant peptides in both replicates and fivefold over WT or none in WT

Assay [1] addresses PfUPF2-HA (P. falciparum (endogenous in NF54 parasites)) (UniProt Q8I2Q1).
For assay [2], the target named is PfUPF1-HA (P. falciparum (endogenous in NF54 parasites)).
Assay [3] shares this target. The source holds these as a separate data set.
Assay [4] addresses PfUPF2-HA (P. falciparum (endogenous in NF54 parasites)) (UniProt Q8I2Q1). This is another data set of the same source.

Regarding “60S ribosomal protein L6 (60SRPL6) (from UniProt Q8IE85)”, the binding result in assay [1] is recorded as “binds”. In the case of “60S ribosomal protein L13-2 (RPL13-2) (from UniProt Q8IAX6)”, the binding entry in assay [2] was “binds”.

With “60S ribosomal protein L35 (RPL35) (from UniProt Q8IIB4)”, the binding result in assay [2] was “binds”. Regarding “ATP-dependent RNA helicase (DBP1) (from UniProt Q8IAU1) (enzyme)”, the binding result in assay [1] is reported as “binds”. On to “BFR1 domain-containing protein (BFR1) (from UniProt C6KT13)”, for which, in assay [2], the binding result is “binds”. Consider “Peroxiredoxin (nPrx) (from UniProt Q8IJD0)”, for which the binding result in assay [2] is given as “binds”. PfUPF1 (from UniProt A0A143ZY29): in assay [1], the binding result is given as “binds”.

With PfUPF3b (from UniProt A0A5K1K8T6), the binding entry in assay [1] was “binds”. As for “Phosphoribosylpyrophosphate synthetase (PRPS) (from UniProt Q8IE67)”, the binding entry in assay [2] is “binds”. Turning to “Single-strand telomeric DNA-binding protein GBP2 (from UniProt Q8IJX3)”, the binding entry in assay [1] is on record as “binds”.

B1: 40S ribosomal protein S3A (RPS3A) (protein, UniProt O97313 1-262)
chain: MAVGKNKRTSKGKKGGKKKVTDVFTKKEWYDLKAPKMFLVRNFGKTLVTKTIGKKLATDSLKGRIYEVNLADLNNDEDQAHKKIKLSCDHIINRDCYTDFCGLSITRDKLCSLIRKGYTLIEGHTDVKTLDNYHLRMFCIAFTKKRQNQTKSTCYAQTSQIKKIRKKMVDIMTAEASKVLLKDLVKKFIPESIGKEIEKQCKKIYPLQNVLIRKVKILKRPKLDISKLMELHTDPKEESGKNVNALPESKEATNILTAELKH
As for B1, the binding entry in assay [3] is “binds”.

B2: High-molecular-weight rhoptry protein 3 (RhopH3) (protein, UniProt Q8I395 25-897)
chain: KDVFAGFVTKKLKTLLDCNFALYYNFKGNGPDAGSFLDFVDEPEQFYWFVEHFLSVKFRVPKHLKDKNIHNFTPCLNRSWVSEFLKEYEEPFVNPVMKFLDKEQRLFFTYNFGDVEPQGKYTYFPVKEFHKYCILPPLIKTNIKDGESGEFLKYQLNKEEYKVFLSSVGSQMTAIKNLYSTVEDEQRKQLLKVIIENESTNDISVQCPTYNIKLHYTKECANSNNILKCIDEFLRKTCEKKTESKHPSADLCEHLQFLFESLKNPYLDNFKKFMTNSDFTLIKPQSVWNVPIFDIYKPKNYLDSVQNLDTECFKKLNSKNLIFLSFHDDIPNNPYYNVELQEIVKLSTYTYSIFDKLYNFFFVFKKSGAPISPVSVKELSHNITDFSFKEDNSEIQCQNVRKSLDLEVDVETMKGIAAEKLCKIIEKFILTKDDASKPEKSDIHRGFRILCILISTHVEAYNIVRQLLNMESMISLTRYTSLYIHKFFKSVTLLKGNFLYKNNKAIRYSRACSKASLHVPSVLYRRNIYIPETFLSLYLGLSNLVSSNPSSPFFEYAIIEFLVTYYNKGSEKFVLYFISIISVLYINEYYYEQLSCFYPKEFELIKSRMIHPNIVDRILKGIDNLMKSTRYDKMRTMYLDFESSDIFSREKVFTALYNFDSFIKTNEQLKKKNLEEISEIPVQLETSNDGIGYRKQDVLYETDKPQTMDEASYEETVDEDAHHVNEKQHSAHFLDAIAEKDILEEKTKDQDLEIELYKYMGPLKEQSKSTSAASTSDEISGSEGPSTESTSTGNQGEDKTTDNTYKEMEELEEAEGTSNLKKGLEFYKSSLKLDQLDKEKPKKKKSKRKKKRDSSSDRILLEESKTFTSENEL
Turning to B2, the binding entry in assay [3] is given as “binds”.

B3: DNA/RNA-binding protein (ALBA4) (protein, UniProt A0A5K1K8Y8 1-372)
chain: MENDKKHNQKQNNVDENEFPNSKVLLVSVKRTRRFLERTARELLAGGTRYIILSGLGDALPLCVQLQSSLQSKNAANVVKIETSYSYFNSNYSYTPGLKIYMEKHPEFKGSRISPGYVSFHEKTDSFTPIYDENPNEYICSLNAGDNNLYVGGEGINGAFSELLSSHNQEVDKYESLFKELLTKAVNENGEKPDEEVKSVLYDNVDKKYPDVKLALCRIRNSLKKGSDHSTGSVFIVTFKKNFPHKKEKNMGMVYVVGPKGKNYNSVEEFLDEVQETAENLMTTLCDYNGLVKREEIKHVRMNTCRICLFSGSIFKHPNASKLDVAKAILNGLAVGYRHGPSPRLNFAYDENVFKDAWVETTGLQVFNHNEQ
Turning to B3, the binding entry in assay [3] and in assay [4] was “binds” each time.
